Test results from paper PMC4880191.

Chains of the proteins cited; added tags and fusions are not shown. Residues count along the entry.
UniProt P05455, 114-326 K200R/K208R: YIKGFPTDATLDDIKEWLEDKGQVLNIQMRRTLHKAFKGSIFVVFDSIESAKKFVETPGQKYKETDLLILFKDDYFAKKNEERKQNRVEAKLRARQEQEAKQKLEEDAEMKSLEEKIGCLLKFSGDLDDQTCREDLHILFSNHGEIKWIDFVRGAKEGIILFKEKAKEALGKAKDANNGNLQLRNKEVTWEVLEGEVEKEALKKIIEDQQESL

Molecular target: La RRM1+2 K200R/K208R (human) (UniProt P05455)
Experiment: EMSA
Details: SUMO-WT or SUMO-GA reaction, bound only weakly, no enhancement; L37/L22 EMSA: 1x binding buffer (from 2x: 3 mM MgCl2, 300 mM NaCl, 1 mM EDTA, 0.1% Nonidet P-40), i.e. 1.5 mM MgCl2, 150 mM NaCl, 0.5 mM EDTA, 0.05% NP-40; pH not stated; recombinant protein; residues 114-326; protein details: His6 (pET28b); label: 3'-Cy3

Sequence | binding result
CUCCUCUGCCGCCAUGGCUCCUGUGAAAAAGCUUGUG [L22 TOP RNA] | binds more weakly
UUCCGGUCUCUUUGGCCUCGCCGGUAGAAGCAAGAUG [L37 TOP RNA] | binds more weakly

Weaker means in comparison with the reference protein, sequence or condition of that experiment.
